{"sequences": {"note": "The chains behind the UniProt entries cited, without tags or fusion partners. Where a name states a change or a piece, a line headed by the entry shows the natural chain unless it says otherwise.", "UniProt Q9UIL1": "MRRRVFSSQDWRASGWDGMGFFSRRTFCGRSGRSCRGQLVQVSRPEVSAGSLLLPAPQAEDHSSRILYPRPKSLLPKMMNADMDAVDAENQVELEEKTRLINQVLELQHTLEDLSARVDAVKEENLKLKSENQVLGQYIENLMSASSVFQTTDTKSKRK", "UniProt Q9UBU9": "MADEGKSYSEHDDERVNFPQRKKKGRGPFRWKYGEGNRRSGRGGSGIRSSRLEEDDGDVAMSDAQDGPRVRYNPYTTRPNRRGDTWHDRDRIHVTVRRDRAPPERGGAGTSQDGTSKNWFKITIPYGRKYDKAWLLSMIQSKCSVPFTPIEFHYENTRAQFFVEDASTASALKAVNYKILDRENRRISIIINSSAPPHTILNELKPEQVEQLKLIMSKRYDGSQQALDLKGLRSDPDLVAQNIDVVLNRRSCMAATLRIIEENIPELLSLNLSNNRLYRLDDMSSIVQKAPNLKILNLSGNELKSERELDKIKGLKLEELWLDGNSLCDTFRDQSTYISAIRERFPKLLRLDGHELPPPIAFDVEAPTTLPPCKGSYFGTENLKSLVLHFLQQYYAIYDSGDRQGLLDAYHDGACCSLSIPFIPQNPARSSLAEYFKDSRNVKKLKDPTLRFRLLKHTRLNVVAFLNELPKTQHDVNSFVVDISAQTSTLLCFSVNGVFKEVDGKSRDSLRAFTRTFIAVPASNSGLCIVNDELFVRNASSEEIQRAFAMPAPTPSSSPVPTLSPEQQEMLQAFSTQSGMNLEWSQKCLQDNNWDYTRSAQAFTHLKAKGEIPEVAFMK", "UniProt Q9NZJ6": "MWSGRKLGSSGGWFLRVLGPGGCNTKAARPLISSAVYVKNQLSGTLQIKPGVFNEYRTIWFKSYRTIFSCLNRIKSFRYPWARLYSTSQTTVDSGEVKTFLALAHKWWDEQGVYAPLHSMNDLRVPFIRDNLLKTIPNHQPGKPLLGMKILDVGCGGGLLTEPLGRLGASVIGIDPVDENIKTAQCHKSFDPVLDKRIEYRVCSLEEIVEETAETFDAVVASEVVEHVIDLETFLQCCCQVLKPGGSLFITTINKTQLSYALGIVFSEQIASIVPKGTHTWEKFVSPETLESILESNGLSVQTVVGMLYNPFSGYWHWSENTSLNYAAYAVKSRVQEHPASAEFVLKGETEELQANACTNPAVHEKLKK", "UniProt Q9NZT2": "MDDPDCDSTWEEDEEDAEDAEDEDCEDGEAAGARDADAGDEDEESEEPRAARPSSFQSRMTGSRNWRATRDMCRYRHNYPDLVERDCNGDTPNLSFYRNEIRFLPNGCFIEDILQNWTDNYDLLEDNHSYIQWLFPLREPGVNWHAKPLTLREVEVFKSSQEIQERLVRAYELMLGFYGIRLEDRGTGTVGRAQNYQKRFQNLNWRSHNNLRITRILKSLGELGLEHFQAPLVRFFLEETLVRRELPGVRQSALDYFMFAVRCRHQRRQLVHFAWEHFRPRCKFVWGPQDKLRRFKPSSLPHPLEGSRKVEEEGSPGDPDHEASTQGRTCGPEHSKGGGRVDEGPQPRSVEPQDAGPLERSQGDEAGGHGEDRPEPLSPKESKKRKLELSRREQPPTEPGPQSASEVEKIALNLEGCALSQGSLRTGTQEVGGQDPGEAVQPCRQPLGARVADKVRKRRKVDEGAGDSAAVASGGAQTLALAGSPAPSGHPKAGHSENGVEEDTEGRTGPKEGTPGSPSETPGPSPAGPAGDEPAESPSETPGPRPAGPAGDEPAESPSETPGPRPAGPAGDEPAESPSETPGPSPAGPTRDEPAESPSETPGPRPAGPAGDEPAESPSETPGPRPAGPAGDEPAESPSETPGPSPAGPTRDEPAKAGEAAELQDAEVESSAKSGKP", "UniProt Q9UJX2, whole entry": "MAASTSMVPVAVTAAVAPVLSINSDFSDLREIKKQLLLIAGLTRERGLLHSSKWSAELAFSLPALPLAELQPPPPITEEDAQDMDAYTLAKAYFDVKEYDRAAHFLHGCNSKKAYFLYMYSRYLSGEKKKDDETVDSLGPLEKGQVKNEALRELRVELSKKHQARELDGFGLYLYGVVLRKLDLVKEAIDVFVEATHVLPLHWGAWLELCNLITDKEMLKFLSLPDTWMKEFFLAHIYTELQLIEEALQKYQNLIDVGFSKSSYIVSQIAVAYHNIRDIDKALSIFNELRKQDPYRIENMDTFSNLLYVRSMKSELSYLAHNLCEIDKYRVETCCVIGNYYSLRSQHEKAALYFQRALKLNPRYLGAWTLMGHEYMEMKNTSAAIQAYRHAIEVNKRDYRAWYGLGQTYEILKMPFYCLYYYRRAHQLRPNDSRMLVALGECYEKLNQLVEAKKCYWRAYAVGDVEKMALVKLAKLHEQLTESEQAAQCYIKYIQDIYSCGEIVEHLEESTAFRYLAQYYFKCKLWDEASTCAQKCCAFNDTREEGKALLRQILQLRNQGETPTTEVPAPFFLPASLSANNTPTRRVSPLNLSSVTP", "UniProt Q9UI09, whole entry": "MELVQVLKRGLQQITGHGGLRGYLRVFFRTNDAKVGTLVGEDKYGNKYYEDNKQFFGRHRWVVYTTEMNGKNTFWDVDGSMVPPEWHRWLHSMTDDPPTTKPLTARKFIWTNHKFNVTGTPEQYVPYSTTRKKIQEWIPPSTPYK", "UniProt Q9UBK8": "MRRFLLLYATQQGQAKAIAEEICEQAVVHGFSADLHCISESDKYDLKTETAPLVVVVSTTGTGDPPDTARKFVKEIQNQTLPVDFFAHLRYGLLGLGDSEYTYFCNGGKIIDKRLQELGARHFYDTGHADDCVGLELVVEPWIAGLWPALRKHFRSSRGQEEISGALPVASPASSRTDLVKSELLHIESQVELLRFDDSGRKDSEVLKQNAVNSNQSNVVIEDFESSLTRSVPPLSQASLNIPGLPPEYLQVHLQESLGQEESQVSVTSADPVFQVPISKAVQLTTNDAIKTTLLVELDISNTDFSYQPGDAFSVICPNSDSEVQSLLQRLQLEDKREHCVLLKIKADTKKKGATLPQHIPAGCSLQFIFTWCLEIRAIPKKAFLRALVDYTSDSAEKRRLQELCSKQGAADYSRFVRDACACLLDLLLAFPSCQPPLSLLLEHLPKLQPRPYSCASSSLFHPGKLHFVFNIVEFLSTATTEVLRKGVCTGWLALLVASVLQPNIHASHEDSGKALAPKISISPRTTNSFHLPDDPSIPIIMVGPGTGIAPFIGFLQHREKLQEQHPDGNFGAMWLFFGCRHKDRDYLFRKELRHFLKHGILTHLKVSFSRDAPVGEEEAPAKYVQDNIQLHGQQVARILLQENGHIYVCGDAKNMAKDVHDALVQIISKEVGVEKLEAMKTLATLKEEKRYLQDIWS", "UniProt Q9P1U0, whole entry": "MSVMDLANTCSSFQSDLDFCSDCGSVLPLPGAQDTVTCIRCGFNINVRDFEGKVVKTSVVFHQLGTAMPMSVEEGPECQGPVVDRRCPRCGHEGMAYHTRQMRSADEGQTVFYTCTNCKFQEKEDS", "UniProt Q9P0T7": "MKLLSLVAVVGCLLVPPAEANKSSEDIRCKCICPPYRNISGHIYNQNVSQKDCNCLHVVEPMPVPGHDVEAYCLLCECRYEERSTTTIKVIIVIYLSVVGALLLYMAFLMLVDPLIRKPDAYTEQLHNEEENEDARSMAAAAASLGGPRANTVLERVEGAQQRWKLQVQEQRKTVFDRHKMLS", "UniProt Q9UHR6": "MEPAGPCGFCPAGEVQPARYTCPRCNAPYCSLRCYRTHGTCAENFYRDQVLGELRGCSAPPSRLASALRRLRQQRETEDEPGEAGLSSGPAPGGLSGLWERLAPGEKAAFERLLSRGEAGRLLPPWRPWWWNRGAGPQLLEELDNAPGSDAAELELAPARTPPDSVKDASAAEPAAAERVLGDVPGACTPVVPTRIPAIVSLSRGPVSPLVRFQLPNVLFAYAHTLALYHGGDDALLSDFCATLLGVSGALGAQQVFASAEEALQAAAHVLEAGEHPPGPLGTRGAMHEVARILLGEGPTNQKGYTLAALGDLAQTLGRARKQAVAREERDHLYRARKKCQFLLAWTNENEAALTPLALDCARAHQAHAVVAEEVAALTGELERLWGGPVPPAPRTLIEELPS", "UniProt Q9UBF2": "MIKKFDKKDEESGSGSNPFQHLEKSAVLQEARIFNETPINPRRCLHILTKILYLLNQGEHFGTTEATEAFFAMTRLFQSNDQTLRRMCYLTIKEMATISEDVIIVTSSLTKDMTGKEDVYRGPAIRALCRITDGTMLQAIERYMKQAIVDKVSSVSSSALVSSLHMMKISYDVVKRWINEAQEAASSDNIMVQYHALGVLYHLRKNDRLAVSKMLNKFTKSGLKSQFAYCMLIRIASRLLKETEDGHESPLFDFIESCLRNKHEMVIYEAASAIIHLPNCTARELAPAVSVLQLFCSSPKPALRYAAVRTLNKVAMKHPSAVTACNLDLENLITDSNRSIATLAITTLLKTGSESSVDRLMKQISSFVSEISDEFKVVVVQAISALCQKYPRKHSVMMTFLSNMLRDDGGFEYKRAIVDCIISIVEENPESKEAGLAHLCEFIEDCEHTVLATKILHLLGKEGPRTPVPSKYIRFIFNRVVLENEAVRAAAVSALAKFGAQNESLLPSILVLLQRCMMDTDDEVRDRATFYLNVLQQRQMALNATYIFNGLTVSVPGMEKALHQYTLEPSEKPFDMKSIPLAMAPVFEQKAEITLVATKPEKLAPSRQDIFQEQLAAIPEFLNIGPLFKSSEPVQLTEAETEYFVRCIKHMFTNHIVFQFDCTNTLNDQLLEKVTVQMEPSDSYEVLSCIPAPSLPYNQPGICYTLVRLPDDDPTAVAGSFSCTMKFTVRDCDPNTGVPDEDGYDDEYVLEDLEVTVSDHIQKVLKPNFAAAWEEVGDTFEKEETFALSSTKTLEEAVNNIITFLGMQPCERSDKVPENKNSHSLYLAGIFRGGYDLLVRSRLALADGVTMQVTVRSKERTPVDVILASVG"}, "source": "the supplement of paper PMC12819154", "about": "“High-throughput peptide-centric local stability assay extends protein–ligand identification to membrane proteins, tissues and bacteria” (Nature Structural & Molecular Biology, 2025)", "note": "Some of the results follow. Most values lie at the level of the controls, where differences are scatter."}
{"compound": "CN[C@@H]1C[C@H]2O[C@@](C)([C@@H]1OC)n1c3ccccc3c3c4c(c5c6ccccc6n2c5c31)C(=O)NC4 [staurosporine]", "experiment": "log2 fold change of tryptic peptide abundance, ligand vs vehicle (limited proteolysis) (log2 ratio); higher = more trypsin-susceptible (destabilized)", "details": "ligand concentration: 20 uM; sample: K562 cleared lysate; digestion: 4 min, 22 C (HT-PELSA RT4min, Orbitrap Astral)"}
{"target": "SCOC (peptide sequence: VDAVKEENLK, peptide start residue: 118) (UniProt Q9UIL1)", "log2 fold change": -0.0157}
{"target": "NXF1 (peptide sequence: GEIPEVAFMK, peptide start residue: 610) (UniProt Q9UBU9)", "log2 fold change": 0.206}
{"target": "COQ3 (peptide sequence: SFDPVLDKR, peptide start residue: 189) (UniProt Q9NZJ6)", "log2 fold change": 0.0422}
{"target": "OGFR (peptide sequence: CKFVWGPQDK, peptide start residue: 282) (UniProt Q9NZT2)", "log2 fold change": 0.333}
{"target": "CDC23 (peptide sequence: MLVALGECYEK, peptide start residue: 435) (UniProt Q9UJX2)", "log2 fold change": -0.133}
{"target": "NDUFA12 (peptide sequence: MELVQVLKR, peptide start residue: 1) (UniProt Q9UI09)", "log2 fold change": 0.379}
{"target": "MTRR (peptide sequence: GQEEISGALPVASPASSR, peptide start residue: 159) (UniProt Q9UBK8)", "log2 fold change": -0.248}
{"target": "ZNRD1 (peptide sequence: CGHEGMAYHTR, peptide start residue: 90) (UniProt Q9P1U0)", "log2 fold change": 0.132}
{"target": "TMEM9 (peptide sequence: SMAAAAASLGGPR, peptide start residue: 137) (UniProt Q9P0T7)", "log2 fold change": 0.135}
{"target": "ZNHIT2 (peptide sequence: EERDHLYR, peptide start residue: 328) (UniProt Q9UHR6)", "log2 fold change": -0.649}
{"target": "COPG2 (peptide sequence: LFQSNDQTLRR, peptide start residue: 76) (UniProt Q9UBF2)", "log2 fold change": 0.272}
